Assay [1] concerns the target 6xHis-tagged HACS1 SH3 domain (human) (UniProt Q9NSI8). In words: SEC-MALS; 0.2 mM (2.0 mg/mL) reduced 6xHis-tagged SH3 domain; 5 mM Tris, 60 mM NaCl, 2.5 mM TCEP pH 7.7; AdvanceBio SEC300A column; both purified. For orientation: In gel filtration, larger molecules generally elute earlier.
Assay [2] shares this target. In words: NMR 15N relaxation (rotational correlation time); 0.3 mM reduced 15N-labeled 6xHis-tagged HACS1 SH3 domain, NMR buffer with 2.5 mM TCEP, 700 MHz; global fit of T1, T2 and heteronuclear NOE; both purified.

Chains of the proteins cited; added tags and fusions are not shown. Residues count along the entry.
UniProt Q9NSI8, residues 163-224: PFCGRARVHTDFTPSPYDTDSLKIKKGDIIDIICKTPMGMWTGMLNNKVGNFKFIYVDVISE

No constants are given. Whether binding was seen depends on the method and setting.

Consider “6xHis-tagged HACS1 SH3 domain (from UniProt Q9NSI8 163-224) (domain or fragment)”, for which the binding result in assay [1] is listed as “no binding (tested: 0.2 mM)”; in assay [2], “no binding (tested: 0.3 mM)”.
